No constants are given. Whether binding was seen depends on the method and setting. Binding seen in cells or lysates may run through a third protein. Some results given as binding are weak or reduced against the parent protein; the word gives no strength. Sequences can lack the tags named with a protein.
B1: Myc-SMC6 (protein, UniProt Q96SB8 1-1091)
chain: MAKRKEENFSSPKNAKRPRQEELEDFDKDGDEDECKGTTLTAAEVGIIESIHLKNFMCHSMLGPFKFGSNVNFVVGNNGSGKSAVLTALIVGLGGRAVATNRGSSLKGFVKDGQNSADISITLRNRGDDAFKASVYGNSILIQQHISIDGSRSYKLKSATGSVVSTRKEELIAILDHFNIQVDNPVSVLTQEMSKQFLQSKNEGDKYKFFMKATQLEQMKEDYSYIMETKERTKEQIHQGEERLTELKRQCVEKEERFQSIAGLSTMKTNLESLKHEMAWAVVNEIEKQLNAIRDNIKIGEDRAARLDRKMEEQQVRLNEAEQKYKDIQDKLEKISEETNARAPECMALKADVVAKKRAYNEAEVLYNRSLNEYKALKKDDEQLCKRIEELKKSTDQSLEPERLERQKKISWLKERVKAFQNQENSVNQEIEQFQQAIEKDKEEHGKIKREELDVKHALSYNQRQLKELKDSKTDRLKRFGPNVPALLEAIDDAYRQGHFTYKPVGPLGACIHLRDPELALAIESCLKGLLQAYCCHNHADERVLQALMKRFYLPGTSRPPIIVSEFRNEIYDVRHRAAYHPDFPTVLTALEIDNAVVANSLIDMRGIETVLLIKNNSVARAVMQSQKPPKNCREAFTADGDQVFAGRYYSSENTRPKFLSRDVDSEISDLENEVENKTAQILNLQQHLSALEKDIKHNEELLKRCQLHYKELKMKIRKNISEIRELENIEEHQSVDIATLEDEAQENKSKMKMVEEHMEQQKENMEHLKSLKIEAENKYDAIKFKINQLSELADPLKDELNLADSEVDNQKRGKRHYEEKQKEHLDTLNKKKRELDMKEKELEEKMSQARQICPERIEVEKSASILDKEINRLRQKIQAEHASHGDREEIMRQYQEARETYLDLDSKVRTLKKFIKLLGEIMEHRFKTYQQFRRCLTLRCKLYFDNLLSQRAYCGKMNFDHKNETLSISVQPGEGNKAAFNDMRALSGGERSFSTVCFILSLWSIAESPFRCLDEFDVYMDMVNRRIAMDLILKMADSQRFRQFILLTPQSMSSLPSSKLIRILRMSDPERGQTTLPFRPVTQEEDDDQR

Key:
[1] = target: T1, GFP-SMC6 (human) (UniProt Q96SB8); experiment: co-IP; GFP-Trap (Nano-Trap magnetic agarose, Chromotek) from HEK293 cells co-transfected with GFP-SMC6 (WT or mutant; bait), 2Myc-SIMC1 and FLAG-SLF2^CTD; western blot with anti-GFP, FLAG, Myc
T1 sequence: B1 chain

[2] = target: GFP-SIMC1 (human) (UniProt Q8NDZ2); experiment: co-IP; GFP-Trap (Nano-Trap magnetic agarose, Chromotek) from HEK293 cells co-transfected with GFP-SIMC1 (WT or mutant; bait), Myc-SMC6 and FLAG-SLF2^CTD (WT, mut1, mut2 or 635–1160); western blot
[3] = target: T2, GFP-SIMC1 combo control mutant (human) (UniProt Q8NDZ2); experiment: as above
T2 sequence: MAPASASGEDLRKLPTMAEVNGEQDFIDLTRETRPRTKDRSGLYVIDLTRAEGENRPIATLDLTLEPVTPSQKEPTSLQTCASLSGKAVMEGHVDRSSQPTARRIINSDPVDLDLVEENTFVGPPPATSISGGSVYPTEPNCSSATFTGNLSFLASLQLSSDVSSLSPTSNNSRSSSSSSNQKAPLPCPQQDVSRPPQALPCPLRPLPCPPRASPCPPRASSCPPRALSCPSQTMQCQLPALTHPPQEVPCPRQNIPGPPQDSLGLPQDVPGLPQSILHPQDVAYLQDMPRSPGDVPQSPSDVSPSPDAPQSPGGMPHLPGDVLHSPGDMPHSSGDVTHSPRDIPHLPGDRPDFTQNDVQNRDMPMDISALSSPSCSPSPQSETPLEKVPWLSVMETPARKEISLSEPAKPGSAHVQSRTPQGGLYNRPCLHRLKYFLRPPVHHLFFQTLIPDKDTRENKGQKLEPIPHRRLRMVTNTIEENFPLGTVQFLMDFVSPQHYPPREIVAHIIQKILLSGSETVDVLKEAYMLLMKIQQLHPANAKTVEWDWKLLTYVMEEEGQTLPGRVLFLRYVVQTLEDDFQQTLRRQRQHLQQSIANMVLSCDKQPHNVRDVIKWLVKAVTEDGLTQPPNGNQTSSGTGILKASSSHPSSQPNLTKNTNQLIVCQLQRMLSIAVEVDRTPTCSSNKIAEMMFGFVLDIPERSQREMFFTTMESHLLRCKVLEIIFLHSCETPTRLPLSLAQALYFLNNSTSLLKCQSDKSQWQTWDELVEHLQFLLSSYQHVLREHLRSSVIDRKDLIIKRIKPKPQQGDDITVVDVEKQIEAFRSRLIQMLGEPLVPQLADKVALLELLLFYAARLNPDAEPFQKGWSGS

| Molecule | binding [1] | binding [2] | binding [3] |
| --- | --- | --- | --- |
| 2Myc-SIMC1 (from UniProt Q8NDZ2 1-872) | binds | – | – |
| B1 | – | binds | binds |

Reference: paper PMC12656486
